Results are given in words; binding and its absence hold for the method and conditions named. Some entries that bind do so weakly or less than the wild type.
T1: CCR4 (UniProt P51679)
T1 sequence: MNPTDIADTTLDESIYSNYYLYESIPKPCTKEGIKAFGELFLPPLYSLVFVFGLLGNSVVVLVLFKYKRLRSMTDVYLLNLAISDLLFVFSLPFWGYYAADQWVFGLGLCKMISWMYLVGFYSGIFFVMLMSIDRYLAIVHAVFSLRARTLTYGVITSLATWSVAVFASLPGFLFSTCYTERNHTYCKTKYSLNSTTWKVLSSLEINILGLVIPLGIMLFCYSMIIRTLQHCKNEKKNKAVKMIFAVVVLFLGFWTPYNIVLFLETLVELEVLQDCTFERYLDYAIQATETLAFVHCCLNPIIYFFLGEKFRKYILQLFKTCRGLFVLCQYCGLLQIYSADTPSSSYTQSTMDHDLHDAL

By UniProt entry, the sequences of proteins in these tests, tags left out.
UniProt P51677: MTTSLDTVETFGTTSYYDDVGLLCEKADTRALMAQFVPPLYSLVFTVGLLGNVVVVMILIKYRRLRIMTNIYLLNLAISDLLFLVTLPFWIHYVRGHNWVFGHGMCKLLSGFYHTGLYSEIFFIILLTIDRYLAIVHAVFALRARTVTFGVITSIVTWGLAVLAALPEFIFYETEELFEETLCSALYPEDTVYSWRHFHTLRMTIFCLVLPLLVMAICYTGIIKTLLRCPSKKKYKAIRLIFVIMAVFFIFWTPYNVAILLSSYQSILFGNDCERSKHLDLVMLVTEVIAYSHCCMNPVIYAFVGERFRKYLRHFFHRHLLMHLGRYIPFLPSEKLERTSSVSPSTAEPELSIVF
UniProt P41597: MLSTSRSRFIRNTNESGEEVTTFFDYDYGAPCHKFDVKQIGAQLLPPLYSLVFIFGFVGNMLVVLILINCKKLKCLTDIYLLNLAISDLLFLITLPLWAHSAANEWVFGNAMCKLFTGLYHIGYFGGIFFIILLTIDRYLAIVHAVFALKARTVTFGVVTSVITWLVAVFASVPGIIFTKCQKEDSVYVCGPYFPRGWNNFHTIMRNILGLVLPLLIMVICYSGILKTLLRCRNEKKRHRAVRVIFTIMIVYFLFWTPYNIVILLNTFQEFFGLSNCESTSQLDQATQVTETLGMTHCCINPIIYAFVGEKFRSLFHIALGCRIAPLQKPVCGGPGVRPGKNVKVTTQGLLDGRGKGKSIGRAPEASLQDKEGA
UniProt P51681: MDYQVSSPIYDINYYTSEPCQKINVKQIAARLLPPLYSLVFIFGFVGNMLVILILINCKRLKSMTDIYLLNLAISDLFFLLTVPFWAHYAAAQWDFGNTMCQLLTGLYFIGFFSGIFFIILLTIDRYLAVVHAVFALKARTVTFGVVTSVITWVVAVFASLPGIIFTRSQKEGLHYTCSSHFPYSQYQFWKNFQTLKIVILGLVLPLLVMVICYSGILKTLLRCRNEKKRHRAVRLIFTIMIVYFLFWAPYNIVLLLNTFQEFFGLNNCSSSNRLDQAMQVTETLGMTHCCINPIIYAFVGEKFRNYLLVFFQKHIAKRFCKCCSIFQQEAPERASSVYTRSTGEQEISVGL

B1: Alexa 647-CCL18 (ligand, UniProt P55774 21-89)
chain: AQVGTNKELCCLVYTSWQIPQKFIVDYSETSPQCPKPGVILLTKRGRQICADPNKKWVQKYISDLKLNA
modifications: Alexa 647 label (position not given)
B2: ^125I-CCL18 (ligand, UniProt P55774 21-89)
chain: B1 chain
modifications: 125I label (iodinated; residue not stated)

Key:
[1] = target: CCR3 (UniProt P51677); assay: flow cytometry on cells; Alexa 647-CCL18 at 1, 10 or 100 nM on 10^6 L1.2 transfectants or untransfected L1.2 cells, 1 h at 4 °C in FACS buffer (PBS, 0.1% BSA, 0.01% azide); only the binder purified
[2] = target: CCR2 (UniProt P41597); assay: as above
[3] = target: CCR5 (UniProt P51681); assay: as above
[4] = target: T1, CCR4; assay: as above
[5] = target: CCR3 (UniProt P51677); assay: radioligand binding; data not shown: competition of 44AAGA47-CCL18 for 125I-CCL18 binding to CCR3 in receptor binding studies; only the binder purified
[6] = target: CCR3 (UniProt P51677); assay: radioligand binding; equilibrium competition on L1.2/CCR3 transfectants, tracer 0.1 nM 125I-CCL18, 0.1 x10^6 cells/well, competitor 10^-6 to 10^-12 M, room temperature 4 h, filtration; only the binder purified

Row | Binder | binding [1] | binding [2] | binding [3] | binding [4] | binding [5] | binding [6]
1 | B1 | binds | no binding (tested: 100 nM) | no binding (tested: 100 nM) | no binding (tested: 100 nM) |  | 
2 | B2 |  |  |  |  | binds | binds

Source: paper PMC3741163
